# At least one compound was matched to its structure with a doubt left.
# Assay: Chemical stability of PN159 in solution (stability indicating HPLC)
# Type: physicochemical
# Conditions: 5° C., six month storage
# Protocol: The chemical stability of the PN159 was determined under therapeutically relevant storage conditions. A stability indicating HPLC method was employed. Solutions (50 mM) were stored at various pH (4.0, 7.3, and 9.0) and temperature (5° C., 25° C., 35° C., 40° C., and 50° C.) conditions. Samples at pH 4 contained 10 mM citrate buffer. Samples at pH 7.3 and 9.0 contained 10 mM phosphate buffer. […] For example, at 5° C. and pH 4.0 or pH 7.3, there was essentially 100% recovery of PN159 for six month storage. […] The pH range of 4.0 to 7.3 and the temperature range of refrigerated to ambient are most relevant for intranasal formulations.
smiles,measurement,setting,value
CC(C)C[C@H](NC(=O)[C@H](C)NC(=O)[C@H](CCCCN)NC(=O)[C@H](CC(C)C)NC(=O)[C@H](C)NC(=O)[C@H](CC(C)C)NC(=O)[C@H](CCCCN)NC(=O)[C@H](CC(C)C)NC(=O)[C@H](C)NC(=O)[C@H](CC(C)C)NC(=O)[C@@H](N)CCCCN)C(=O)N[C@@H](CCCCN)C(=O)N[C@@H](C)C(=O)N[C@@H](C)C(=O)N[C@@H](CC(C)C)C(=O)N[C@@H](CCCCN)C(=O)N[C@@H](CC(C)C)C(=O)N[C@@H](C)C(N)=O [PN159],recovery of PN159,pH 4.0 (10 mM citrate),~100%
same,recovery of PN159,pH 7.3 (10 mM phosphate),~100%

# — US20070154449A1, “TIGHT JUNCTION MODULATING PEPTIDES FOR ENHANCED MUCOSAL DELIVERY OF THERAPEUTIC COMPOUNDS” (Nastech Pharmaceutical Company Inc., priority 2005, published 2007)
